Data reported in paper PMC7819943, “Rice protein-binding microarrays: a tool to detect cis-acting elements near promoter regions in rice”.
This is one part of the list.

Chains of the proteins cited; added tags and fusions are not shown.
UniProt Q0JBA9, entry or part of it: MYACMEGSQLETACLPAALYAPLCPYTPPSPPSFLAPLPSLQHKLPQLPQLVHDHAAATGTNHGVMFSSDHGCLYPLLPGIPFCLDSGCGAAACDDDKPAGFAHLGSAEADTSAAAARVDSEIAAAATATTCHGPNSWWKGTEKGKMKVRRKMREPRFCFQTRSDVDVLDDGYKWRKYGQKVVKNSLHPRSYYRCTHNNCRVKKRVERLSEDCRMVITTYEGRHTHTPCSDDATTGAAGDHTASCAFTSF

Each sequence was assayed against OsWRKY34 (Oryza sativa, UniProt Q0JBA9 1-250) (assay: protein-binding microarray (RPBM); PBS, 2% BSA, 51.3 ng/ul salmon testes DNA, 50 uM zinc acetate, 200 nM TF, 25 C, 1 h; high values mean tight binding). Details: protein: recombinant; tags: N-terminal polyhistidine and DsRed monomer fusion (pET32a); label: CyDye5-dUTP incorporated in the synthesized complementary strand; 3' TTTTT single-stranded linker to array surface; dsDNA, one strand shown.
Outline: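 Ni–NTA purification followed expression in E. coli BL21-CodonPlus of transcription factors fused N-terminally to a polyhistidine tag and DsRed. At 200 nM in PBS with 2% BSA, salmon testes DNA and 50 µM zinc acetate, the protein was incubated for 1 h at 25 °C with a custom Agilent array that had been primer-extended with Cy5-dUTP and blocked with 2% BSA. After washing, the array was read on an Axon 4000B scanner. The binding signal is per-feature fluorescence intensity in arbitrary units.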

| Sequence | binding signal |
| --- | --- |
| TCCATGCATGCTTTGCCTAGCTTTTTTCCAAGTTCTTTTTCGGAGTCACCTAGTGCAG | 9450 fluorescence intensity (a.u.) |
| CTCTCCTCGGGTTCGACTCTCCACCGCTGTCACTCACTCTCGGAGTCACCTAGTGCAG | 10000 fluorescence intensity (a.u.) |
| CTTTTGGCCGTACTTTTTTCATCTGGGTCCTTTGCCGCCCCGGAGTCACCTAGTGCAG | 8400 fluorescence intensity (a.u.) |
| ACCGTGCTCCCGCACCCGTGGTTCCGCGCCATCTGCCTCGCGGAGTCACCTAGTGCAG | 8070 fluorescence intensity (a.u.) |
| TTCGAAAGATGCATAGATACTCCCATTTCTTTCTTTATTTCGGAGTCACCTAGTGCAG | 9930 fluorescence intensity (a.u.) |
| AGAGGGAGTGGGGTGGCATGGTGGTTAATTTTTTACCCAACGGAGTCACCTAGTGCAG | 8440 fluorescence intensity (a.u.) |
| TCCCCATTCCTCCCTCCCTTTCGATCTGTTCGTCCTCCTACGGAGTCACCTAGTGCAG | 8740 fluorescence intensity (a.u.) |
| TTTCAGGCTAGACTATTAATCCCTTGACTTTTCAAAACATCGGAGTCACCTAGTGCAG | 8750 fluorescence intensity (a.u.) |
| AAAAATCATCTCTCCCAGTTGCAACTTCCAAATTTGGCCGCGGAGTCACCTAGTGCAG | 9530 fluorescence intensity (a.u.) |
| CTCTCCGCCGCCGTCCCGTTTCCTCCTCCCGCACAGATTCCGGAGTCACCTAGTGCAG | 9680 fluorescence intensity (a.u.) |
| CGTGTGCTGTTCTATGCCCAATTGCAGTCCAACTCACCACCGGAGTCACCTAGTGCAG | 8480 fluorescence intensity (a.u.) |
| CACTCCACTCTCCCATCACTCATCACCCGCACGAGTAAAACGGAGTCACCTAGTGCAG | 11300 fluorescence intensity (a.u.) |
| GTCGATCACCTGGGTCCACACGTCAGTGTCTAATCCAGAACGGAGTCACCTAGTGCAG | 8110 fluorescence intensity (a.u.) |
| ATAATAGGGCTTTGTTTTCGCCGTTTGTTGAGTCGTCCCTCGGAGTCACCTAGTGCAG | 11100 fluorescence intensity (a.u.) |
| TCATCCCAAGTTCCAGTATAAGGGTCAATCAGTTCCTCCACGGAGTCACCTAGTGCAG | 8720 fluorescence intensity (a.u.) |
| ATGTTTCCGTTGTATTCCATGTGGTCATTTCCCAACATACCGGAGTCACCTAGTGCAG | 10700 fluorescence intensity (a.u.) |
| TTTCCATGCATGTATCGCCTACCTGCCCATTTAATTTGATCGGAGTCACCTAGTGCAG | 9100 fluorescence intensity (a.u.) |
| TAATGTGTTTGGCGCTACTCTTTATCCATATCTAAATCTACGGAGTCACCTAGTGCAG | 8240 fluorescence intensity (a.u.) |
| GTTTGACTATCCTATGTAATCCAATATTCCCTCCAATGCACGGAGTCACCTAGTGCAG | 8030 fluorescence intensity (a.u.) |
| GGGATTATTGGGTCCACATGAGTTATAGGATTGAGATTCTCGGAGTCACCTAGTGCAG | 8990 fluorescence intensity (a.u.) |
| CAAATTACTACTACCTCCGTCCCAAAATAATTGCATTTCTCGGAGTCACCTAGTGCAG | 8950 fluorescence intensity (a.u.) |

Some of the entries so far, as tab-separated lines:
Sequence	binding signal
ACCGTGCTCCCGCACCCGTGGTTCCGCGCCATCTGCCTCGCGGAGTCACCTAGTGCAG	8070 fluorescence intensity (a.u.)
TTCGAAAGATGCATAGATACTCCCATTTCTTTCTTTATTTCGGAGTCACCTAGTGCAG	9930 fluorescence intensity (a.u.)
TCATCCCAAGTTCCAGTATAAGGGTCAATCAGTTCCTCCACGGAGTCACCTAGTGCAG	8720 fluorescence intensity (a.u.)

Going on with the list.

| Sequence | binding signal |
| --- | --- |
| GTTTGCCATCCACGATATCCGTCGATTCGCGTCACGTCAGCGGAGTCACCTAGTGCAG | 8560 fluorescence intensity (a.u.) |
| ATTTCAAAATTTTAGGACTTATGTACTGCCAGTGTAATTTCGGAGTCACCTAGTGCAG | 9100 fluorescence intensity (a.u.) |
| AAGTCGCAACACCTCGTTGATCTTGTTTTTGTTAGCGATGCGGAGTCACCTAGTGCAG | 9230 fluorescence intensity (a.u.) |
| GTATCATCTCATCTGCATGCCAGGACTCCTGTACAAGTTTCGGAGTCACCTAGTGCAG | 11100 fluorescence intensity (a.u.) |
| CAAACGATCCTAAACTGCCACCTAACGCTTCCTACGAACACGGAGTCACCTAGTGCAG | 8440 fluorescence intensity (a.u.) |
| ACAGCCATCCATTTAACTCTTATACACAAAATATATTAGTCGGAGTCACCTAGTGCAG | 9150 fluorescence intensity (a.u.) |
| GGTTCAGAAGGCTAAGGCATTGTTTAGTTCCTAACTTTTTCGGAGTCACCTAGTGCAG | 9840 fluorescence intensity (a.u.) |
| TCTCTTGTCGCCACCAAAAAGCTGACCGCCTGCTTCTACACGGAGTCACCTAGTGCAG | 8440 fluorescence intensity (a.u.) |
| CCATACTACAACCTTCTCATTTTTCTATTATCACGTTTTCCGGAGTCACCTAGTGCAG | 12000 fluorescence intensity (a.u.) |
| TAGGGGCTCTCTCCTCTCATTGACTGATTTGACCTGAATTCGGAGTCACCTAGTGCAG | 9710 fluorescence intensity (a.u.) |
| TCCACTCCACTCCACCCCGCGATCTCCTCTCCTCTCGTCTCGGAGTCACCTAGTGCAG | 11600 fluorescence intensity (a.u.) |
| GTAGTTTTGTGAAATTTACTTTTTTTTTTTTTTTTGATAACGGAGTCACCTAGTGCAG | 9770 fluorescence intensity (a.u.) |
| TGTTTTGGTGGGTTGGTTTTTGGCCTTGGCTTGCATCTCACGGAGTCACCTAGTGCAG | 10800 fluorescence intensity (a.u.) |
| TTTAGATTAGACTAGGTTATTTTTTATTTTCATAATCTTACGGAGTCACCTAGTGCAG | 10500 fluorescence intensity (a.u.) |
| CGTCAATTAGTCGCAATATGTCCAATTAATTATTTTTTTACGGAGTCACCTAGTGCAG | 8730 fluorescence intensity (a.u.) |
| CTAACGAACGAAACCCAAGCATCTAGCATCTCTGCCTACACGGAGTCACCTAGTGCAG | 8300 fluorescence intensity (a.u.) |
| CCAACATTGACCAGTCGGCACTCACACCACTATATCCCTTCGGAGTCACCTAGTGCAG | 10100 fluorescence intensity (a.u.) |
| GGCTTCATCACAGCATCCATCGCCGCCGGCCACCACCACCCGGAGTCACCTAGTGCAG | 12700 fluorescence intensity (a.u.) |
| GGTCGGTAACAATTACCTTGCGAACTATCTGAAAAACTGCCGGAGTCACCTAGTGCAG | 8510 fluorescence intensity (a.u.) |
| TTATTTAAAGGAGGCGGGGTAGGAGGGAGAGGGAGATAGGCGGAGTCACCTAGTGCAG | 8960 fluorescence intensity (a.u.) |
| CCACCTCGCACGTGCGTCACGTGACGGGCTCCTCGGCCCACGGAGTCACCTAGTGCAG | 8270 fluorescence intensity (a.u.) |
